{
  "sequences": {"note": "Protein sequences, listed by entry. Tags and fused reporters are not part of them. Residues count along the entry.", "UniProt P19883, residues 30-344": "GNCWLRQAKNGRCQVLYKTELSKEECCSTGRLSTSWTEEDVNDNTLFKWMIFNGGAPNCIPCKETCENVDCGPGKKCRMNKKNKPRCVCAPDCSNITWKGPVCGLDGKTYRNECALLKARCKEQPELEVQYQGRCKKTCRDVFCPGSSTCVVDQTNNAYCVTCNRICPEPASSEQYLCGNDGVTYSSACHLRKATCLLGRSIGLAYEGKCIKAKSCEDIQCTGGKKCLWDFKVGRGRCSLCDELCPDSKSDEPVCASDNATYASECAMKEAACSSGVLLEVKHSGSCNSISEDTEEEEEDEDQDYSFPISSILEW", "UniProt P08476, residues 311-426": "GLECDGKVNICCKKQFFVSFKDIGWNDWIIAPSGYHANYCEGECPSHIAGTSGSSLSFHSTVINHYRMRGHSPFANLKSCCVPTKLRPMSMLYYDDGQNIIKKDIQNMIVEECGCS"},
  "source": "paper PMC4924649",
  "target": "follistatin (human (endogenous in plasma)) (UniProt P19883)",
  "assay": "ELISA; plasma samples treated with rhActA (50 and 100 ng/ml), then FST measured with the Quantikine FST ELISA (R&D Systems DFN00); read-out is the loss of detectable (free) FST; only the binder purified",
  "note": "No constants are given. Whether binding was seen depends on the method and setting. Some entries that bind do so weakly or less than the wild type.",
  "data": [
    {"substance": "recombinant human activin A (from UniProt P08476 311-426) (ligand)", "values": [
      {"measurement": "binding", "value": "binds"}
    ]}
  ]
}
